Laboratory results from patent publication US20100267638A1, “EXOSITE-DIRECTED THROMBIN INHIBITORS” (CLEVELAND STATE UNIVERSITY, priority 2003, published 2010).
Some results were stated once for a whole list of compounds, not compound by compound.

Tested on: factor V deficient plasma
Test: Clotting activity of recombinant factor V molecules
Experimental: Determination of factor V/tor Va clotting activity of the recombinant molecules. Cofactor activity of wild type and mutant molecules was measured in a clotting assay using factor V deficient plasma prior and after activation by thrombin (15 min, 37° C.) and RVV-V activator (2 hr, 37° C.) as described. The values were standardized to the percentage of control. A linear semi-log graph was constructed using known concentrations of purified factor V (U/ml as a function of clotting time). The assay endpoint was determined by visualization of the fibrin clot. The activity of the factor VNa solution (U/ml) was determined by extrapolation from the graph. The concentration of the recombinant molecules was determined by a recently described ELISA. Finally, the numbers were combined to obtain the specific activity of the recombinant factor V solutions (U/mg).

Factor VaRVV^2K2F: quadruple mutant activated with RVV-V activator
clotting activity relative to wild type molecules activated under similar conditions: < 0.2%
